Consider one molecule from paper PMC6985574.

Assay [1] deals with Arabidopsis OR protein (AtOR) (Arabidopsis) (UniProt Q9FKF4). In words: two-hybrid; yeast split-ubiquitin system, β-galactosidase (lacZ reporter) activity by oNPG assay, relative to OD600, biological triplicates, cultures at 28°C.
Assay [2] shares this target. In words: two-hybrid; yeast split-ubiquitin system, growth test: Nub fusions (N-terminal) mated with Cub fusions (C-terminal); diploids spotted on fully selective medium (-LWAH) supplemented with 150 µM and 1 mM Met to repress the Cub fusion.

Results are given in words; binding and its absence hold for the method and conditions named. Some binding calls cover weakened binding; strength is not graded here.

B1: Arabidopsis OR protein (AtOR) (protein, UniProt Q9FKF4 56-307)
chain: ADKFASGFCIIEGPETVQDFAKMQLQEIQDNIRSRRNKIFLHMEEVRRLRIQQRIKNTELGIINEEQEHELPNFPSFIPFLPPLTAANLKVYYATCFSLIAGIILFGGLLAPTLELKLGIGGTSYADFIQSLHLPMQLSQVDPIVASFSGGAVGVISALMVVEVNNVKQQEHKRCKYCLGTGYLACARCSSTGALVLTEPVSAIAGGNHSLSPPKTERCSNCSGAGKVMCPTCLCTGMAMASEHDPRIDPFD
With B1, the binding result in assay [1] and in assay [2] was “binds” in each case.
